Data from paper PMC3610893, “The CouPSTU and TarPQM Transporters in Rhodopseudomonas palustris: Redundant, Promiscuous Uptake Systems for Lignin-Derived Aromatic Substrates” (PLoS ONE, 2013).

Molecular target: T1, CouP (RPA1789) periplasmic binding-protein (Rhodopseudomonas palustris, UniProt Q6N8W4)
T1 sequence (Q6N8W4 27-385): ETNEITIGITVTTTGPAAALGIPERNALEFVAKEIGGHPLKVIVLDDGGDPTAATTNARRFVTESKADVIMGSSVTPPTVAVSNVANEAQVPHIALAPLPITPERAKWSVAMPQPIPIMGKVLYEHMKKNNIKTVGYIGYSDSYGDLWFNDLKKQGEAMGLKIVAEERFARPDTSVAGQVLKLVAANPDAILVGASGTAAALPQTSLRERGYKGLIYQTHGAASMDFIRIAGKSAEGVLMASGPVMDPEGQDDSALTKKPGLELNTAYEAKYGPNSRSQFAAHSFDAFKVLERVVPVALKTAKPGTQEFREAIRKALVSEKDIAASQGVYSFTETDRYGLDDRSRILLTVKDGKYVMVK
Experiment: Intrinsic tryptophan fluorescence spectroscopy / ligand titrations with CouP (RPA1789)
Conditions: refolded protein 0.2 µM, 10 mM Tris-HCl pH 7.4, 30°C, emission 340 nm; three independent titrations; read-out: K d (nM) CouP (RPA1789), fluorescence titrations
Procedure: Pure protein was unfolded by dialysis against 1 L of 6 M urea for 16 hours at 4°C. Refolding was effected by dialysis against 2 L of refolding buffer (50 mM Tris-HCl pH 7.2 plus 100 mM NaCl) for 8 hours, the buffer being changed every 2 hours with a final overnight dialysis. Once removed from the dialysis tubing, protein was centrifuged (13,000×g, 10 mins, 4°C) to remove any precipitated misfolded protein.
Changes in the UV fluorescence of intrinsic tryptophan residues in RPA1782 and RPA1789 were measured using a Cary Eclipse fluorimeter (Varian Ltd, UK) in 10 mM Tris-HCl buffer pH 7.4 at 30°C in a 3 ml volume. Excitation of samples was at 280 nm (5 nm slit width) and emission was recorded at 300–400 nm (20 nm slit width). Ligand titrations were performed with 0.2 µM protein with λex 280 nm λem 340 nm using 5 nm excitation and 20 nm emission slit widths respectively. Except where indicated, data from three independent titrations was used to calculate K d values, by fitting to the quadratic equation for tight binding as previously described.

Structure (SMILES): O=C(O)C(=O)Cc1ccc(O)cc1 [4-HPP, 4-hydroxyphenylpyruvate]
- Kd: 15 ± 3 nM
